The record followed here is PubChem BioAssay AID662 (National Center for Advancing Translational Sciences (NCATS), 2007).

One may read the AC50 as the midpoint of the concentration-response curve, whichever way the signal moves.

This is one part of the list. Shown are side measurements of this screen, not its main read-out; they come without a call. The list favours compounds with an active or inconclusive main result. Potencies come from curve fits of mixed quality, noted in brackets.

This test is described as follows: Cell signaling CRE-BLA (Fsk stim). The following applies: CHO CRE-bla reporter (cAMP response element driving beta-lactamase), forskolin EC10, beta-lactamase ratio; measured here: 460 nm blue channel. In outline:
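Modulation of forskolin-driven signalling is measured in CHO cells carrying a CRE-controlled beta-lactamase reporter. Cells are stimulated with EC10 NKH 477 in the presence of titrated compound for 3 h at 37 °C, then loaded with CCF4 for 2 h at room temperature.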
For the molecule `CCOc1ccccc1C1CC(=O)Nc2cc3c(cc21)OCO3` (stereo not drawn), the AC50 was 12.6 µM [rising, single point].
In the case of `Cc1cc(C)n(-c2ccc(C(=O)NCc3cccs3)cc2)n1` it was 0.0251 µM [rising, full curve, poor fit]; in that of `CCOc1cccc2cc(-c3csc(NC(=O)CCC(=O)N4CCN(C)CC4)n3)c(=O)oc12`, 0.631 µM [rising, full curve].
For the molecule `Cc1cc(C)n(-c2ccc(F)cc2)c(=O)c1C(=O)O`, the AC50 is 0.398 µM [falling, full curve].
In the case of `Cc1cc(CN2CCN(CCC#N)CC2)c(O)c(C2(C)CCCCC2)c1`, the AC50 was 10 µM [falling, partial curve].
Regarding `CCOCCOc1nc2c(c(=O)n(C)c(=O)n2C)n1Cc1ccc(C)cc1`, the AC50 is 2.51 µM [rising, full curve].
On to `CNc1nc(-c2ccc(C(=O)N(C)C)cc2)nc2ccccc12`, for which the AC50 is 10 µM [rising, single point].
Consider `O=C(N1CCN(c2ccccc2)CC1)C(F)(F)C(F)(F)F`, for which the AC50 is 0.794 µM [falling, full curve, poor fit].
As to `CCn1c2ccccc2c2nnc(SCC(=O)N3CC(C)OC(C)C3)nc21` (stereo not drawn), the AC50 was 10 µM [rising, partial curve].
Consider `COCCCn1c(SCC(=O)Nc2nnc(C)s2)nnc1-c1ccoc1C`, for which the AC50 is 25.1 µM [rising, single point].
In the case of `CCS(=O)(=O)N1CCC(C(=O)NCc2ccccn2)CC1`, the AC50 was 0.00794 µM [falling, full curve, poor fit].
`COc1ccccc1CNC(=O)CCC(=O)Nc1nnc(C)s1`: the AC50 is 25.1 µM [rising, single point].
As for `Cc1nnc(NC(=O)CSc2nnc(Cc3cccn3C)n2-c2ccccc2)s1`, the AC50 is 12.6 µM [rising, single point].
As for `Cc1nn(Cc2ccc(Cl)c(Cl)c2)c(C)c1NC(=O)c1cc(-c2ccc3c(c2)OCO3)on1`, the AC50 was 6.31 µM [rising, partial curve].
Turning to `CC1(C(=O)NC2CCCCCCC2)CCC(=O)N1CCN1CCOCC1` (stereo not drawn), the half-maximal activity concentration (AC50) was 25.1 µM [rising, single point].
On to `CCOC(=O)c1cc(-c2ccco2)nc2c1c(C)nn2-c1ccccc1`, for which the AC50 was 3.16 µM [rising, full curve].
For the molecule `C[C@H]1C2=C3C(CC[C@H]4C(OCc5ccc(F)cc5C(F)(F)F)OC[C@](C)([C@@H]34)N(C(=O)OC(C)(C)C)C2)C(CO)C1CO` (stereo partly drawn), the concentration at half-maximal activity (AC50) is 7.94 µM [rising, partial curve].
As for `CC1CCc2c(sc3nc(SCC(=O)NCc4ccco4)nc(N)c23)C1` (stereo not drawn), the AC50 is 10 µM [rising, partial curve].
In the case of `O=C(Nc1ccccc1C(=O)NCc1ccccc1)c1ccco1` it was 3.98 µM [rising, partial curve]; in that of `COc1ccc(OC)c(C2=Nn3c(nnc3-c3cccc(OC(C)C)c3)SC2)c1`, 2 µM [rising, full curve].
With `Cc1cc(SCC#N)n2nc(C)c(-c3ccccc3)c2n1`, the AC50 was 3.16 µM [rising, partial curve].
Turning to `CSC1=C(C#N)C(C)C2=C(CC(C)(C)CC2=O)N1` (stereo not drawn), the concentration at half-maximal activity (AC50) was 12.6 µM [rising, partial curve, poor fit].
As for `Cc1cccc(Nc2nnc(SCc3cn4ccsc4n3)s2)c1`, the concentration at half-maximal activity (AC50) was 12.6 µM [rising, partial curve].
In the case of `O=C(Nc1ccc(CCC(=O)N2CCCC2)cc1)c1ncn[nH]1`, the AC50 is 0.00316 µM [falling, full curve, poor fit].
In the case of `COCCn1c(SCC(=O)N2CCCc3ccccc32)nnc1-c1ccco1` it was 12.6 µM [rising, single point].
On to `CCOc1cc(-c2noc(CCC(=O)N3CCOCC3)n2)ccc1OC`, for which the AC50 is 12.6 µM [rising, single point].
Regarding `COc1cc(Cl)c(C)cc1NC(=O)COC(=O)c1cnc(C)cn1`, the AC50 was 0.00316 µM [falling, full curve, poor fit].
Regarding `CC(=O)c1c(C(C)=O)c(C)n(NC(=O)c2cccnc2)c1C`, the AC50 was 0.794 µM [falling, full curve].
Consider `Cc1c(CN(C)C)c2c(n1C)C(=O)c1ccc(Br)cc1-2`, for which the AC50 is 5.01 µM [rising, full curve].
Consider `O=C(CCS(=O)(=O)Cc1ccccc1F)N1CCc2ccccc2C1`, for which the AC50 was 0.0501 µM [falling, full curve].
As for `CC1=C(C)C(=O)NC(Nc2nc(C)c3cc(C)cc(C)c3n2)N1` (stereo not drawn), the AC50 is 0.2 µM [rising, full curve].
Turning to `O=C(CCNS(=O)(=O)c1cccc2nsnc12)N1CCc2ccccc21`, the concentration at half-maximal activity (AC50) is 5.01 µM [falling, single point].
In the case of `Cc1nnc(NC(=O)CSc2nc3c(c(=O)n2CCc2ccccc2)SC(C)C3)s1` (stereo not drawn) it was 10 µM [rising, partial curve]; in that of `COc1cccc(C2CC(=O)N3CN(c4ccccc4F)CSC3=C2C#N)c1` (stereo not drawn), 10 µM [rising, single point].
As to `COCCNc1nc(-c2cccc(NS(C)(=O)=O)c2)nc2ccccc12`, the AC50 was 3.98 µM [rising, full curve].
Turning to `COc1cc(C2=NOC(C(=O)Nc3ccc(C)cc3)C2)cc(OC)c1OC` (stereo not drawn), the AC50 was 1.26 µM [rising, partial curve, poor fit].
In the case of `Cc1cc(NC(=O)C2CCC2)n(-c2ccccn2)n1`, the AC50 was 5.01 µM [rising, partial curve].
Take `Nc1ccc(SC(F)(F)F)cc1C(=O)c1ccccc1`: the AC50 is 25.1 µM [falling, single point].
Turning to `Cc1ccc(C)c2[nH]c(=O)c(CN(CCCN(C)C)C(=O)NCc3ccccc3)cc12`, the AC50 is 31.6 µM [falling, partial curve].
In the case of `CCNc1ncc2ncc(=O)n(Cc3ccc(F)cc3)c2n1` it was 25.1 µM [rising, single point]; in that of `CCN(CC)c1ccc(NC(=O)c2cc(OC)cc(OC)c2)c(C)c1`, 10 µM [rising, partial curve].
Regarding `CCOc1ccc2nc(NCCCNS(=O)(=O)c3ccccc3)c(C#N)cc2c1`, the AC50 is 10 µM [rising, partial curve].
For `C=CCn1nnnc1SCC(=O)Nc1ccccc1C(=O)OC`, the concentration at half-maximal activity (AC50) is 0.00316 µM [falling, full curve, poor fit].
For the molecule `Cc1c2cccc(Sc3ccccc3)c2c2c3c(cccc13)[S+](c1ccccc1)C2` (stereo not drawn), the AC50 is 3.16 µM [rising, single point].
`CCOC(=O)CSC1=Nc2ccccc2C2=NC(CC(=O)NCc3cccs3)C(=O)N12` (stereo not drawn): the AC50 was 0.0398 µM [rising, full curve].
As for `CN(C)c1ccc(NC(=O)c2cc3c(=O)n4ccccc4nc3n2C)cc1`, the figure is 5.01 µM [rising, partial curve]; as for `COc1cc(/C=C\c2ccc(OC)cc2OC)cc(OC)c1`, 2.51 µM [rising, full curve].
With `CCCCOCCCNC(=O)c1cccs1`, the AC50 is 0.0631 µM [rising, full curve].
Regarding `COc1cc2c(cc1OC)/C(=C/C#N)NC(C)(C)C2`, the AC50 is 2 µM [rising, full curve].
In the case of `CCCCC(=O)Nc1cccc(-c2nn3c(C)nnc3s2)c1` it was 25.1 µM [rising, single point]; in that of `CCCCc1cc(=O)oc2c(CN3CCCC3)c(O)c(Cl)cc12`, 10 µM [rising, partial curve].
In the case of `CC(C)C1N=C2c3ccccc3N=C(SCc3cc(=O)n4cc(Cl)ccc4n3)N2C1=O` (stereo not drawn) it was 0.126 µM [rising, full curve].
Consider `COc1ccc(-n2c(=O)cc(N3CCN(c4ccccc4F)CC3)[nH]c2=O)cc1`, for which the AC50 is 15.8 µM [rising, single point].
Regarding `COc1ccc(S(=O)(=O)Cc2ccc(C(=O)N3CCN(c4cccc(C)c4C)CC3)o2)cc1`, the AC50 was 25.1 µM [falling, single point].
In the case of `CCOCCCNc1nc(=S)[nH]c2cc(OC)c(OC)cc12` it was 0.126 µM [rising, full curve]; in that of `Cc1cc(NC(=O)c2cnn3cccnc23)n(-c2ccccc2)n1`, 2.51 µM [rising, full curve].
With `O=S(=O)(NCCc1ccccn1)c1ccc(F)c(F)c1`, the AC50 is 25.1 µM [rising, single point].
In the case of `COCC(=O)Nc1nc2n(n1)C(c1ccccc1)CC(c1ccc(OC)cc1)N2` (stereo not drawn), the AC50 was 0.316 µM [falling, full curve].
As for `O=C(NCc1cccnc1)C1CCCCN1S(=O)(=O)c1ccc(F)cc1` (stereo not drawn), the figure is 0.00398 µM [falling, full curve, poor fit]; as for `CC1(C)CC(=O)c2cc(C(=O)N3CCN(CCO)CC3)c(=O)n(-c3ccc(Cl)cc3)c2C1`, 0.501 µM [rising, full curve].
Take `CCn1cc(C(=O)Nc2ccc3c(c2)OCCO3)c2cc(OC)c(OC)cc2c1=O`: the AC50 was 0.631 µM [rising, full curve].
As for `Cc1nc2ccc(S(=O)(=O)N(C)CC(=O)NCc3ccc4c(c3)OCO4)cc2s1`, the AC50 was 0.1 µM [falling, full curve].
As for `CCOC(=O)CSc1nnc(CSc2nc3ccccc3c(=O)[nH]2)n1-c1ccccc1`, the figure is 10 µM [rising, single point].
`CCNc1ncc2nc(CCc3ccccc3)c(=O)n(-c3ccccc3)c2n1`: the half-maximal activity concentration (AC50) was 12.6 µM [rising, partial curve].
With `Cc1ccc(S(=O)(=O)N2CCN(CCO)CC2)cc1-c1nnc2c3ccccc3c(C)nn12`, the half-maximal activity concentration (AC50) was 10 µM [rising, partial curve].
For the molecule `Cc1ccc(-c2nc3ccccc3[nH]2)cc1NC(=O)c1ccco1`, the AC50 is 12.6 µM [rising, partial curve].
`O=C1c2ccccc2N2C(=O)c3ccccc3C2N1Cc1ccco1` (stereo not drawn): the AC50 was 10 µM [rising, partial curve].
Regarding `Cc1nnc(SCC(=O)NC(C)c2ccccc2)[nH]c1=O` (stereo not drawn), the AC50 is 1 µM [falling, partial curve].
